These are yes or no findings as the source states them, for the method shown. In cells and extracts the contact can be indirect. Here binding means that the protein was enriched with, or labelled near, the bait; the list need not be complete. Tags and fused reporters may be left off the sequences shown.
Target: T1, adipocyte plasma membrane-associated protein APMAP1, Flag-tagged (human) (UniProt Q9HDC9)
T1 sequence: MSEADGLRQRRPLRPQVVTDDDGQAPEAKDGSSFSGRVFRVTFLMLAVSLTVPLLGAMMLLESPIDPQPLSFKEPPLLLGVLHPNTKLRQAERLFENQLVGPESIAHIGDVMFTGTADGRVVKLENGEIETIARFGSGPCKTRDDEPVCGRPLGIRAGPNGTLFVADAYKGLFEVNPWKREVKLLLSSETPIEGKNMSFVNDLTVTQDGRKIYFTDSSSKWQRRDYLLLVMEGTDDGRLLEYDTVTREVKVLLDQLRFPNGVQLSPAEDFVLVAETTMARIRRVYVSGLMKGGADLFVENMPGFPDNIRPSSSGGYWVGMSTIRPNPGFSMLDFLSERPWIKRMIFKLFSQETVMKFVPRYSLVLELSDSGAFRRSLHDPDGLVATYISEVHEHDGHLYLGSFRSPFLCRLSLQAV
Experiment: affinity purification with mass spectrometry; bicarbonate-washed membranes of CHO-APMAP1-Flag cells solubilised in 1% CHAPSO, diluted in 0.1% digitonin-TBS, bound to M2 anti-Flag affinity resin overnight, eluted with 0.2 mg/ml Flag peptides; Superdex 200 SEC in 0.1% digitonin-TBS; BN-PAGE bands CP1 to CP8 excised, in-gel trypsin digestion, LC-MS/MS; two independent experiments

Sequences of proteins named here, by UniProt entry; tags and fusion partners are left off.
UniProt A0A061IGS6: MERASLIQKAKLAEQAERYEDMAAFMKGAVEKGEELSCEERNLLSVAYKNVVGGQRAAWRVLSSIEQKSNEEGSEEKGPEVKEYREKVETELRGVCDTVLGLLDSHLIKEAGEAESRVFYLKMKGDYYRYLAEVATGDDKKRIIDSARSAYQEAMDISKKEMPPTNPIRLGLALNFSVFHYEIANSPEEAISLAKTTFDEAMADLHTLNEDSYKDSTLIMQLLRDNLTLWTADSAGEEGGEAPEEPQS
UniProt A0A9J7JS88: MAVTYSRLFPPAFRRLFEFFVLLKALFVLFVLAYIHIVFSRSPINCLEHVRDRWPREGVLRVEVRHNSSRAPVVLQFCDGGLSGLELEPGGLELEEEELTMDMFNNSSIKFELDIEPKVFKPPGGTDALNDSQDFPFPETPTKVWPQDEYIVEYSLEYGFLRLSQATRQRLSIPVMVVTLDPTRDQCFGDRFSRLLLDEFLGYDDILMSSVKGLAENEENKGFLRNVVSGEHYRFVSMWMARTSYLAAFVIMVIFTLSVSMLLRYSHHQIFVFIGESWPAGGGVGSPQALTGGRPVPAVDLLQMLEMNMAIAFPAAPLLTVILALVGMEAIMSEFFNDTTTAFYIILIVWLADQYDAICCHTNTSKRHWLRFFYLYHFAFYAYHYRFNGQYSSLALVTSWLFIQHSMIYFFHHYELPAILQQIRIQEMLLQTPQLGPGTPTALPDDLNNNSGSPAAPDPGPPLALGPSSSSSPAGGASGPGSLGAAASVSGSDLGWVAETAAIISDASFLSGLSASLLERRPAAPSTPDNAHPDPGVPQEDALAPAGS

In the case of “14-3-3 protein sigma (from UniProt A0A061IGS6 1-248)”, the binding is reported as “binds”.

For “arginase-1 (Chinese hamster (endogenous in CHO)) (enzyme)”, the binding was “binds”.

“calnexin (Chinese hamster (endogenous in CHO))” was tested, and the binding was “binds”.

“cation-independent mannose 6-phosphate receptor (Chinese hamster (endogenous in CHO))” was tested, and the binding was “binds”.

With “clusterin (Chinese hamster (endogenous in CHO))” the binding was “binds”.

In the case of “fetuin-A (Chinese hamster (endogenous in CHO))”, the binding is reported as “binds”.

“membralin (from UniProt A0A9J7JS88 1-548)” was tested, and the binding was “binds”.

In the case of “nicastrin (Chinese hamster (endogenous in CHO))”, the binding is reported as “binds”.

In the case of “prostaglandin F2 receptor negative regulator (Chinese hamster (endogenous in CHO))”, the binding is reported as “binds”.

“reticulon-4 (Chinese hamster (endogenous in CHO))” was tested, and the binding was “binds”.

For “serpinB3 (Chinese hamster (endogenous in CHO))”, the binding was “binds”.

B1: lysosome-associated membrane glycoprotein 1 (protein, UniProt P49129 22-407)
chain: ASALFVVKDSNGTACIMANFSASFFTIYETGHGSKNSTFELPSSAEVLNSNSSCGRENVSEPILTIAFGSGYLLTLNFTRNATRYSVQDMYFAYNLSDTQHFLNASNKGIHSVDSSTDIKADINKTYRCLSAIQVHMGNVTVTLSDATIQAYLLNSNFSKEETRCTQDGPSPTTVPPSPSPPLVPTNPTVIKYNVTGENGTCLLASMALQMNITYMKKDNMTVTRALNISPNDTASGSCSPHVVTLTVESKNSILDLKFGMNGSSSLFFLQEVRLNMTLPDANVSSLMASNQSLRALQATVGNSYKCNTEEHIFVTKEFSLNVFSVQVQAFKVESDRFGSVEECMQDGNNMLIPIAVGGALAGLVLIVLIAYLIGRKRSHAGYQTI
B1 was tested, and the binding was “binds”.
